doi:10.1101/2022.02.24.481622
Read-outs that look alike come from different tables or passages of the source. These are yes or no findings as the source states them, for the method shown. Binding seen in cells or lysates may run through a third protein. These calls come from enrichment with a bait or labelling near it, and not all partners need be listed. A no says only that the protein was not detected with the bait.

Tests used:
Assay in all cases: proximity labelling
[1] = biological target: CRMPB-TurboID (TGGT1_292020, C-terminal TurboID) (Toxoplasma gondii (RH strain))
[2] = biological target: CRMPA-TurboID (TGGT1_261080, TurboID tag) (Toxoplasma gondii (RH strain))
[3] = biological target: CRMPB-TurboID (TGGT1_292020, C-terminal TurboID) (Toxoplasma gondii (RH strain)); remark: listed apart in the source

Measured: binding

B1: Mic8 (protein, UniProt Q9BIM7 19-684)
chain: SFLKEMDSIFVSAIRQNVQHTHSALLAKLKEPPDPDDENSWLCRISKKYDACGSREYSDKGLKGTYCPEDFCCSKTACFYGSCGSWCHDNWALCSSSIIYHDEYSYGKCNCKRFQENCDVNAICVHANREDGGAYCQCKEGYWGDGKSCKIDFCQLQPCGAGTCTRTDEGYKCDCPETHKLIVVEDKETCKAKPDFCAEEPCGPPSMVENCVNTDDSYECVCKQGYEVRNGRCEEIDLCADKPCGPDEGVHECVTERQPKLRYRCTCKAGFDLTTLPDGVSQKCLKNFCYEEPCGTRDLVESCKSKAYGYSCLCAAGAMVQVINGKEKCIKADLCRNDPCGPETAVIQCYSHGTSYRCLCKAGYTEVFVNGKSSCQKGDPCTLNMCGGNEAVQECTTDGTAYGCTCKPGYSIAIKHGQKFCNPEEECASHCGSAAAVKSCEILDSGGYQCTCNPGYVMRYSDYVKGCVEGNQCSLNPCGEQEAVQRCIPEGDTYDCECNPGFVKRVLPDGNFICADPASCVGNPCGSSDAVDACIAGTSTYTCRCKDGYTPQSIGSKLQCLPESTDQTDFDSKHKPEDNKGRYSKGTIALVVVGCVALLGIIAGGISYARNRGGERDDEDLAPPPRSTRERRLSSMGEGFENASWASSVSMIPSAPAPPPSGGIWS
no binding: [1] | [2] | [3]
